{"source": "PubChem BioAssay AID652259, Drosophila RNAi Screening Center – 2013", "aim": "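Knock-downs that push a Wingless-driven reporter up or down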 (primary screen)", "cells": "Drosophila clone 8 imaginal disc epithelial cells", "knock-down reagent": "long dsRNA against Drosophila genes", "conditions": "pathway stimulated by co-transfected Wingless expression plasmid", "measured": "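Dual luciferase reads per well after Wingless plasmid stimulation: reporter firefly light and Renilla control light; activity is firefly divided by Renilla, a ratio not deposited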", "reading the numbers": "firefly reporter light: higher = more Wg reporter light, before normalisation; Renilla control light: higher = more transfected or surviving cells", "rule for the call": "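a knock-down is a candidate when at least two out of four statistical tests show it departing from its plate mean; one test alone signals a weak candidate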", "meaning of the calls": "active = candidate regulator (raises or lowers reporter); inactive = not a candidate", "note": "In all, the deposit lists about 22,000 reagents; shown is a random part of those with a known target gene and a result. In the full data, 233 (1.1%) got an active call. 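Light values are raw, unnormalised plate reads; the ratio scores behind the reporter calls were not deposited.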 A plus sign joins genes that one reagent is predicted to hit. The record does not give: the amount of reagent, the time to read-out, the dose of the treatment."}
{"gene": "CG5961", "amplicon": "DRSC15927", "firefly reporter light, replicate 1": 9333, "Renilla control light, replicate 1": 4160, "call": "inactive"}
{"gene": "CG31673", "amplicon": "DRSC03207", "firefly reporter light, replicate 1": 10317, "Renilla control light, replicate 1": 3106, "call": "inactive"}
{"gene": "ema", "amplicon": "DRSC14536", "firefly reporter light, replicate 1": 25716, "Renilla control light, replicate 1": 6807, "call": "inactive"}
{"gene": "Ucp4B + asRNA:CR43465", "amplicon": "DRSC02665", "firefly reporter light, replicate 1": 3296, "firefly reporter light, replicate 2": 4613, "Renilla control light, replicate 1": 1088, "Renilla control light, replicate 2": 1889, "call": "inactive"}
{"gene": "CR15821", "amplicon": "DRSC08481", "firefly reporter light, replicate 1": 6645, "Renilla control light, replicate 1": 3398, "call": "inactive"}
{"gene": "CG7857", "amplicon": "DRSC10925", "firefly reporter light, replicate 1": 5898, "Renilla control light, replicate 1": 2428, "call": "inactive"}
{"gene": "dup", "amplicon": "DRSC07088", "firefly reporter light, replicate 1": 4128, "Renilla control light, replicate 1": 699, "call": "inactive"}
{"gene": "sd", "amplicon": "DRSC20370", "firefly reporter light, replicate 1": 20614, "Renilla control light, replicate 1": 9152, "call": "inactive"}
{"gene": "sd", "amplicon": "DRSC21712", "firefly reporter light, replicate 1": 8.63e5, "firefly reporter light, replicate 2": 7.49e5, "Renilla control light, replicate 1": 4.15e5, "Renilla control light, replicate 2": 256, "call": "inactive"}
{"gene": "CG6118", "amplicon": "DRSC15968", "firefly reporter light, replicate 1": 14997, "Renilla control light, replicate 1": 1395, "call": "inactive"}
{"gene": "CG43131", "amplicon": "DRSC12046", "firefly reporter light, replicate 1": 1571, "Renilla control light, replicate 1": 1001, "call": "inactive"}
{"gene": "Su(Tpl)", "amplicon": "DRSC10954", "firefly reporter light, replicate 1": 7600, "Renilla control light, replicate 1": 2681, "call": "inactive"}
{"gene": "CG42834", "amplicon": "DRSC13234", "firefly reporter light, replicate 1": 2921, "Renilla control light, replicate 1": 1520, "call": "inactive"}
{"gene": "P5cr-2", "amplicon": "DRSC15889", "firefly reporter light, replicate 1": 12059, "Renilla control light, replicate 1": 3050, "call": "inactive"}
{"gene": "CG8405", "amplicon": "DRSC05599", "firefly reporter light, replicate 1": 19904, "Renilla control light, replicate 1": 7328, "call": "inactive"}
{"gene": "CG8405", "amplicon": "DRSC07166", "firefly reporter light, replicate 1": 8521, "Renilla control light, replicate 1": 2081, "call": "inactive"}
{"gene": "CG34367", "amplicon": "DRSC02238", "firefly reporter light, replicate 1": 2121, "firefly reporter light, replicate 2": 9152, "Renilla control light, replicate 1": 893, "Renilla control light, replicate 2": 4484, "call": "inactive"}
{"gene": "CG34367", "amplicon": "DRSC02850", "firefly reporter light, replicate 1": 1840, "firefly reporter light, replicate 2": 8285, "Renilla control light, replicate 1": 736, "Renilla control light, replicate 2": 4128, "call": "inactive"}
{"gene": "CG32668", "amplicon": "DRSC18879", "firefly reporter light, replicate 1": 3261, "Renilla control light, replicate 1": 711, "call": "inactive"}
{"gene": "CG16727", "amplicon": "DRSC15139", "firefly reporter light, replicate 1": 21408, "Renilla control light, replicate 1": 3565, "call": "inactive"}
{"gene": "FASN3", "amplicon": "DRSC20882", "firefly reporter light, replicate 1": 19441, "Renilla control light, replicate 1": 9360, "call": "inactive"}
{"gene": "CG32271", "amplicon": "DRSC08198", "firefly reporter light, replicate 1": 8680, "Renilla control light, replicate 1": 2804, "call": "inactive"}
{"gene": "CG4597", "amplicon": "DRSC10432", "firefly reporter light, replicate 1": 1335, "firefly reporter light, replicate 2": 6519, "Renilla control light, replicate 1": 870, "Renilla control light, replicate 2": 2919, "call": "inactive"}
{"gene": "melt", "amplicon": "DRSC11367", "firefly reporter light, replicate 1": 2080, "firefly reporter light, replicate 2": 11788, "Renilla control light, replicate 1": 1335, "Renilla control light, replicate 2": 4169, "call": "inactive"}
{"gene": "ND-MNLL", "amplicon": "DRSC18159", "firefly reporter light, replicate 1": 24886, "Renilla control light, replicate 1": 10121, "call": "inactive"}
{"gene": "CG4101", "amplicon": "DRSC10400", "firefly reporter light, replicate 1": 5831, "Renilla control light, replicate 1": 2953, "call": "inactive"}
{"gene": "TpnC4", "amplicon": "DRSC04856", "firefly reporter light, replicate 1": 1776, "firefly reporter light, replicate 2": 5558, "Renilla control light, replicate 1": 544, "Renilla control light, replicate 2": 1964, "call": "inactive"}
{"gene": "CG5618", "amplicon": "DRSC11780", "firefly reporter light, replicate 1": 7654, "Renilla control light, replicate 1": 2869, "call": "inactive"}
{"gene": "TrpA1", "amplicon": "DRSC10544", "firefly reporter light, replicate 1": 738, "firefly reporter light, replicate 2": 5802, "Renilla control light, replicate 1": 768, "Renilla control light, replicate 2": 2444, "call": "inactive"}
{"gene": "CG10183", "amplicon": "DRSC14203", "firefly reporter light, replicate 1": 14344, "Renilla control light, replicate 1": 10176, "call": "inactive"}
{"gene": "Pex5", "amplicon": "DRSC18552", "firefly reporter light, replicate 1": 20804, "Renilla control light, replicate 1": 12416, "call": "inactive"}
{"gene": "CG32971", "amplicon": "DRSC01372", "firefly reporter light, replicate 1": 11290, "Renilla control light, replicate 1": 6506, "call": "inactive"}

3 entries from above, sorted by “Renilla control light, replicate 1”, ascending:
{"gene": "CG31673", "amplicon": "DRSC03207", "firefly reporter light, replicate 1": 10317, "Renilla control light, replicate 1": 3106, "call": "inactive"}
{"gene": "CG5961", "amplicon": "DRSC15927", "firefly reporter light, replicate 1": 9333, "Renilla control light, replicate 1": 4160, "call": "inactive"}
{"gene": "ema", "amplicon": "DRSC14536", "firefly reporter light, replicate 1": 25716, "Renilla control light, replicate 1": 6807, "call": "inactive"}
